Results are given in words; binding and its absence hold for the method and conditions named. In cells and extracts the contact can be indirect. Some entries that bind do so weakly or less than the wild type.

Chains of the proteins cited; added tags and fusions are not shown.
UniProt P26641: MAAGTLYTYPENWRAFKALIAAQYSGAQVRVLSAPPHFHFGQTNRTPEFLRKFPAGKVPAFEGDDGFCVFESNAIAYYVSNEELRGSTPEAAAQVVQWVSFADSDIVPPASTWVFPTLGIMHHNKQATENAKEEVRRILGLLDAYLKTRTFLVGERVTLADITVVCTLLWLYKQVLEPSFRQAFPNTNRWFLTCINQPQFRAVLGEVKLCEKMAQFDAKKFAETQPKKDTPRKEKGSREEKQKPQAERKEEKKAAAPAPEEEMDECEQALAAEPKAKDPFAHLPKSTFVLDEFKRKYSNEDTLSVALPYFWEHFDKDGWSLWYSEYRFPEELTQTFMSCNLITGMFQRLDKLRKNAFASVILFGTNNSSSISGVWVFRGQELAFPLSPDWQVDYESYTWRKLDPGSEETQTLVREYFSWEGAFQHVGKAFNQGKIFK

The record followed here is article doi:10.1101/2024.09.13.612607.

In the assay the target is T1, YTH domain family protein 1 (YTHDF1) (human (endogenous in H1975)) (UniProt Q9BYJ9).
T1 sequence: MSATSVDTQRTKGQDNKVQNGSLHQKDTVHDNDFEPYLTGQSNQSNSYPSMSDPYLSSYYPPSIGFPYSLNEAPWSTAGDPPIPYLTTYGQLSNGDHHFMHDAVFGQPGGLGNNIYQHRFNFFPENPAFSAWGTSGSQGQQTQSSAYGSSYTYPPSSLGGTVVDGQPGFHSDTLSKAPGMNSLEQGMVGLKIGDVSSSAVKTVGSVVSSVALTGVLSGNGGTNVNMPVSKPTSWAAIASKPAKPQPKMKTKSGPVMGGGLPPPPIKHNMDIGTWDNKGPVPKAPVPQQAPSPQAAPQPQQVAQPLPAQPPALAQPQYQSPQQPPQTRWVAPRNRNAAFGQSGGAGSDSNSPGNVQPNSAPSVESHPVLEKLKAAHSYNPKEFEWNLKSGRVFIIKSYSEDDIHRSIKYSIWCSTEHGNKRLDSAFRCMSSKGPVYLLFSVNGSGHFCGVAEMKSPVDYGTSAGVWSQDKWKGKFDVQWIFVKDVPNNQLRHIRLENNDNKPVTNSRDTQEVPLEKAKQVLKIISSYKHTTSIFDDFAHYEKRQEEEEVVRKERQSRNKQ
Nature of the assay: co-IP.

Regarding EEF1G (from UniProt P26641 1-437), the binding result was “binds”.
